Earlier results, collected in patent US20180050107A1, “NEUROSTEROID COMPOSITIONS AND METHODS OF USE THEREOF” (Janssen Pharmaceutica NV, priority 2016, published 2018).
Some of these results come from one statement about several compounds together. For some of these results: At least one compound was matched to its structure with a doubt left.

The chains behind the UniProt entries cited, without tags or fusion partners. Residues count along the entry.
UniProt Q16620, 32-822, species assumed: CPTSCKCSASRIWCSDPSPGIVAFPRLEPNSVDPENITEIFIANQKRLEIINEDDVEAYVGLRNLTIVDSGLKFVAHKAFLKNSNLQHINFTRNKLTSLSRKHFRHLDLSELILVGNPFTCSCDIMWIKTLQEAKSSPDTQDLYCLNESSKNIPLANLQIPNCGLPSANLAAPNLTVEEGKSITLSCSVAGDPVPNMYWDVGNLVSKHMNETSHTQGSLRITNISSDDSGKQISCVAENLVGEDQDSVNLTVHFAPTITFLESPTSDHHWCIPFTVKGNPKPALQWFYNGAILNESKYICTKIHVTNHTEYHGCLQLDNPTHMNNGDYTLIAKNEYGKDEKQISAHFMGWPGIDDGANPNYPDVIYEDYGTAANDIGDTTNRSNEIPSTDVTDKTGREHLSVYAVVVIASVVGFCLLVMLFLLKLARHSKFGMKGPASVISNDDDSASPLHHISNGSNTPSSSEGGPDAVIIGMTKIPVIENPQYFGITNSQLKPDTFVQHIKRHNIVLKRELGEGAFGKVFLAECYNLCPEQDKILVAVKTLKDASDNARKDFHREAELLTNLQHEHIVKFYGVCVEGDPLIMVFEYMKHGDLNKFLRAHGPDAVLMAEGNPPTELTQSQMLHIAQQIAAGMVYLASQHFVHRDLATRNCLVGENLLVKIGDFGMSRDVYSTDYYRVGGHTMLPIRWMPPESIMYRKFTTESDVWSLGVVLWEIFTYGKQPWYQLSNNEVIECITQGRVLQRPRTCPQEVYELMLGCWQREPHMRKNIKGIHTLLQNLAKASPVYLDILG

Experiments:
Trkb = Trkb (Homo sapiens, UniProt Q16620)
HPA axis function = conditions: rat, 0.6 mg/kg
GABA(A) delta = target: T1, GABA(A) delta (Homo sapiens, UniProt O14764); conditions: 10 uMol/L, in vitro; listed as honokiol
T1 sequence (O14764 25-452): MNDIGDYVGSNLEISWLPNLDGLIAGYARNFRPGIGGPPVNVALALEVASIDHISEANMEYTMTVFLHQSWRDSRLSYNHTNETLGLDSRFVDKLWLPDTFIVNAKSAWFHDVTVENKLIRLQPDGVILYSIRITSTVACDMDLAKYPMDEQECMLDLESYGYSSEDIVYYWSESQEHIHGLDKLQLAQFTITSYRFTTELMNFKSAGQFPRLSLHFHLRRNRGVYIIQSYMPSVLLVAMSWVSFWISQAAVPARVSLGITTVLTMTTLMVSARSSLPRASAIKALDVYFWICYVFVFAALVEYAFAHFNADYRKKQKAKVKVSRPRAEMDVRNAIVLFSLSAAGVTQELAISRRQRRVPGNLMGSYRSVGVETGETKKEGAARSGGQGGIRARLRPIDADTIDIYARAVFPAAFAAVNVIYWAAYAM

SMILES	increase of Akt phosphorylation (Trkb)	other results
O=c1cc(-c2ccccc2O)oc2c(O)c(O)ccc12 [7,8,2′ DHF]	over 150%	–
O=c1cc(-c2cccc(O)c2)oc2c(O)c(O)ccc12 [7,8,3′ THF]	over 150%	–
O=C(O)[C@H]1O[C@@H](Oc2c(-c3ccc(O)c(O)c3)oc3cc(O)cc(O)c3c2=O)[C@H](O)[C@@H](O)[C@@H]1O [Example Q3G, quercetin-3-O-glucuronide]	–	reduction of plasma levels of ACTH and cortisol (HPA axis function): 40-70%
C=CCc1ccc(O)c(-c2ccc(O)c(CC=C)c2)c1 [Honokiol]	–	increase of GABA current (GABA(A) delta): at least 800%
